Measured values from publication PMC10294612.

T1: HIP-mAID-HA (TgHIP with a C-terminal miniAID-3HA tag) (Toxoplasma gondii (endogenous locus in RHΔKu80-Tir1)) (UniProt S8GK24)
T1 sequence: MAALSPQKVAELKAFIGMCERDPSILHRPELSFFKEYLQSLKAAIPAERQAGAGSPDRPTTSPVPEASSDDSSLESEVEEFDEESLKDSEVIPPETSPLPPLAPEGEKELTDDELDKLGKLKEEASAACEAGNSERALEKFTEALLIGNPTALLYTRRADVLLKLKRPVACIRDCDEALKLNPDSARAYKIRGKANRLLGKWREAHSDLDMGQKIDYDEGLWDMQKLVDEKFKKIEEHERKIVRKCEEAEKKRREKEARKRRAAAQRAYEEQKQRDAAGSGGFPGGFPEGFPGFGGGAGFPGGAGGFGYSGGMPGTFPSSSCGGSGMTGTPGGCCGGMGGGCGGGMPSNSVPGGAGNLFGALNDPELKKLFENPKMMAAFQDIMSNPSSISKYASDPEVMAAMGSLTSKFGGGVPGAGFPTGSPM

B1: HIP-mAID-HA (TgHIP with a C-terminal miniAID-3HA tag) (protein, UniProt S8GK24 1-425)
chain: MAALSPQKVAELKAFIGMCERDPSILHRPELSFFKEYLQSLKAAIPAERQAGAGSPDRPTTSPVPEASSDDSSLESEVEEFDEESLKDSEVIPPETSPLPPLAPEGEKELTDDELDKLGKLKEEASAACEAGNSERALEKFTEALLIGNPTALLYTRRADVLLKLKRPVACIRDCDEALKLNPDSARAYKIRGKANRLLGKWREAHSDLDMGQKIDYDEGLWDMQKLVDEKFKKIEEHERKIVRKCEEAEKKRREKEARKRRAAAQRAYEEQKQRDAAGSGGFPGGFPEGFPGFGGGAGFPGGAGGFGYSGGMPGTFPSSSCGGSGMTGTPGGCCGGMGGGCGGGMPSNSVPGGAGNLFGALNDPELKKLFENPKMMAAFQDIMSNPSSISKYASDPEVMAAMGSLTSKFGGGVPGAGFPTGSPM

Tests used:
[1] = biological target: T1, HIP-mAID-HA (TgHIP with a C-terminal miniAID-3HA tag) (Toxoplasma gondii (endogenous locus in RHΔKu80-Tir1)); experiment: affinity purification with mass spectrometry; lysates of HIP-mAID-HA/HOOK-Ty or FTS-mAID-HA parasites (±IAA 24 h) in 1% Triton X-100-PBS; anti-HA or anti-Ty antibodies with Protein A-Sepharose, 4°C; eluate read by MS
[2] = biological target: TgHOOK endogenously Ty-tagged in the HIP-mAID-HA strain (HOOK-Ty) (Toxoplasma gondii (endogenous locus in RHΔKu80-Tir1)); experiment: as above

Molecule	binding [1]	binding [2]
TgHOOK endogenously Ty-tagged in the HIP-mAID-HA strain (HOOK-Ty)	binds	–
B1	–	binds

No constants are given. Whether binding was seen depends on the method and setting. Binding seen in cells or lysates may run through a third protein. Here binding means that the protein was enriched with, or labelled near, the bait; the list need not be complete. Sequences can lack the tags named with a protein.
